Results reported in patent US20090099174A1, “COMBINATION 059” (ASTRAZENECA AB, priority 2007, published 2009).
At least one compound was matched to its structure with a doubt left.

System: Calu-6 cell line
Assay: 96-hour MTS viable cell number assay, Calu-6 cell line (monotherapy and combination)
Settings: monotherapy

CO[C@H]1C[C@@H]2CC[C@@H](C)[C@@](O)(O2)C(=O)C(=O)N2CCCC[C@H]2C(=O)O[C@H]([C@H](C)C[C@@H]2CC[C@@H](O)[C@H](OC)C2)CC(=O)[C@H](C)/C=C(\C)[C@@H](O)[C@@H](OC)C(=O)[C@H](C)C[C@H](C)/C=C/C=C/C=C/1C [Rapamycin]
inhibition of cell growth alone: only a partial inhibition of cell growth
